Among the data in PubChem BioAssay AID248 (DTP/NCI, 2004) are survivor count and T/C values, retold here.

For this assay, the system named is L1210 leukemia ip in BDF1 mice, survival T/C. The experiment in a line: NCI In Vivo Anticancer Drug Screen. Data for tumor model L1210 Leukemia (intraperitoneal) in B6D2F1 (BDF1) mice. To be noted: T/C endpoint: mean survival time, higher T/C = longer survival.

The list shows only some results of the screen, not a fair sample: it gathers tests that were run many times, whatever their T/C, doses with no T/C, and many T/C values between a quarter and a half above the control. Other doses and runs of a compound stand elsewhere. T/C gives the treated animals as a percentage of the vehicle group. Some entries give survivors of the animals treated and no T/C: the source files T/C as zero there, which appears to mark a toxic dose or a test without result, not a measured value. Some doses without a T/C left all or most animals alive at the check, yet need not have been tolerated: survival well below the control is almost never listed, so the zero probably covers shortened survival too. Survivors were counted at the toxicity check, usually on the fifth day, unless a day is given; later deaths do not show. Schedule codes are those of the source, taken here to give the interval after Q, in days (D) or hours (H), and the number of doses after X. For survival time, the PubChem record calls one and a half times the control and up active, and a quarter to a half above the control has no call in these data; cut-offs in other NCI protocols can differ.

On to `NNc1c2ccccc2nc2ccccc12`, for which the survivor count reads like this: (dose: 5.0 mg/kg/injection, schedule: Q04DX003 (ip), vehicle: Klucel (hydroxypropylcellulose) (HPC)) 0 of 6; (dose: 10.0 mg/kg/injection, schedule: Q04DX003 (ip), vehicle: Klucel (hydroxypropylcellulose) (HPC)) 0 of 6; (dose: 20.0 mg/kg/injection, schedule: Q04DX003 (ip), vehicle: Klucel (hydroxypropylcellulose) (HPC)) 0 of 6; (dose: 50.0 mg/kg/injection, schedule: Q04DX003 (ip), vehicle: Klucel (hydroxypropylcellulose) (HPC)) 0 of 6; (dose: 100.0 mg/kg/injection, schedule: Q04DX003 (ip), vehicle: Klucel (hydroxypropylcellulose) (HPC)) 0 of 6; (dose: 200.0 mg/kg/injection, schedule: Q04DX003 (ip), vehicle: Klucel (hydroxypropylcellulose) (HPC)) 0 of 6. Also, the survivor count (dose: 400.0 mg/kg/injection, schedule: Q04DX003 (ip), vehicle: Klucel (hydroxypropylcellulose) (HPC)) is 0 of 6.

As to `CSc1cc(C)[o+]c(C)c1`, the survivor count is 1 of 4 (dose: 400.0 mg/kg/injection, schedule: Q01DX001 (ip), vehicle: saline) and 0 of 10 (dose: 400.0 mg/kg/injection, schedule: Q01DX009 (ip), vehicle: Klucel (hydroxypropylcellulose) (HPC)).

As to `Oc1ccccc1C=NCCN1CC1.Oc1ccccc1C=NCCN1CC1.[Co+2]`, the survivor count runs as follows: (dose: 100.0 mg/kg/injection, schedule: Q04DX002 (ip), vehicle: saline) 2 of 3; (dose: 200.0 mg/kg/injection, schedule: Q04DX002 (ip), vehicle: saline) 0 of 3; (dose: 400.0 mg/kg/injection, schedule: Q04DX002 (ip), vehicle: saline) 0 of 3.

For `N#CCCN(CCC#N)[N+](=O)[O-]`, for the setting “dose: 350.0 mg/kg/injection, schedule: Q01DX009 (ip), vehicle: Klucel (hydroxypropylcellulose) (HPC)”, the survivor count was 2 of 6.

Take `N#Cc1cnn(C(N)=S)c1N`: the survivor count reads like this: (dose: 100.0 mg/kg/injection, schedule: Q01DX009 (ip), vehicle: saline) 2 of 6; (dose: 200.0 mg/kg/injection, schedule: Q04DX003 (ip), vehicle: saline) 1 of 6; (dose: 400.0 mg/kg/injection, schedule: Q04DX003 (ip), vehicle: saline) 0 of 6.

Regarding `O=[N+]([O-])c1ccc2c(c1)c(-c1cc(Cl)cc(Cl)c1)nc1ccccc12`, the survivor count (dose: 400.0 mg/kg/injection, schedule: Q01DX009 (ip), vehicle: saline with Tween-80) is 6 of 6.

As to `CC(C)(C)Sc1nc2ccccc2s1`, for the setting “dose: 100.0 mg/kg/injection, schedule: Q04DX002 (ip), vehicle: saline with Tween-80”, the T/C is 139 % of control.

Take `O=C(O)c1cc([N+](=O)[O-])cc([N+](=O)[O-])c1O`: for the setting “dose: 400.0 mg/kg/injection, schedule: Q04DX002 (ip), vehicle: saline with Tween-80”, the survivor count is 0 of 3.
